Results: patent publication US8715666B2 (priority 2005, dated 2014)
Entries after “also recorded” stand apart in the source; their conditions may differ.

Test system: mice nociceptive response to formalin
Details: mouse, in vivo

For CN1CC[C@]23c4c5ccc(O)c4O[C@H]2[C@@H](O)C=C[C@H]3[C@H]1C5 [morphine], the “analgesic effect on licking response” value was “completely ineffective; also recorded: significant analgesic effect; also recorded: block the response to formalin consistently; also recorded: per se ineffective; also recorded: totally ineffective; also recorded: strongly reduce the pain response; also recorded: per se effective” and the “reduction of licking time” value was about 50%.
